Binding data for 2 molecules are collected here from article PMC10454557.

Amino acid sequences for entries named in this document (tags omitted). Residues count along the entry.
UniProt Q14416, residues 19-872: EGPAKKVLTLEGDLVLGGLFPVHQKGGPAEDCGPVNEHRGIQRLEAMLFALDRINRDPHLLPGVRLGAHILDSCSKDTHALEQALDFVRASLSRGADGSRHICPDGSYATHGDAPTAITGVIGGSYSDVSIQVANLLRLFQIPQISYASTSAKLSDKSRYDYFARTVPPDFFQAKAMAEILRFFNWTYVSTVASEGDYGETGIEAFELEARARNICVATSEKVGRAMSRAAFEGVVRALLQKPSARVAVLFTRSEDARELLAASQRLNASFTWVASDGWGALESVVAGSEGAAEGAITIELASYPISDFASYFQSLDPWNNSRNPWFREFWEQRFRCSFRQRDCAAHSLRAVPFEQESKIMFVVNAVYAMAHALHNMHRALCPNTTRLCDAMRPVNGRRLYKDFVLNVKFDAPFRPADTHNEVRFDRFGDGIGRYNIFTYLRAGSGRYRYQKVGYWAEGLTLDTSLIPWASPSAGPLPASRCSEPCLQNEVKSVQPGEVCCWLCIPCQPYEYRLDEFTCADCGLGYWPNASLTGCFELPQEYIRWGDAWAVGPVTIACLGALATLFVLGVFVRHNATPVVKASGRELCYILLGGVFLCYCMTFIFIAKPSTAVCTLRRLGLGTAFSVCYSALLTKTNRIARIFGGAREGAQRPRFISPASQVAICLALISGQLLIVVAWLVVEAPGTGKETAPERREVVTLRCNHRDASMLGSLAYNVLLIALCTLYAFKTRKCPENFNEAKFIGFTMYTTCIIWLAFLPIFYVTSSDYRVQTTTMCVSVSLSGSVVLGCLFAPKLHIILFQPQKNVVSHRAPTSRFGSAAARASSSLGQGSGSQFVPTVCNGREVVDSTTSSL

The target of assay [1] is metabotropic glutamate receptor 2 (mGlu2), endogenous in human blood leukocytes (human (endogenous in blood PMNs and T cells)) (UniProt Q14416). Nature of the assay: co-IP; lysates (RIPA) of isolated human blood PMNs; anti-mGlu2 or anti-TAS1R3 antibody covalently cross-linked to Dynabeads; lysate cleared at 12,000 x g or 15,000 x g; Western blot for the other receptor.
Assay [2] deals with recombinant human mGlu2 with N-terminal IL-6-HaloTag or IL-6-NanoLuc (human) (UniProt Q14416). Kind of assay: FRET or BRET; NanoBRET saturation in HEK-293 cells: acceptor IL-6-HaloTag-TAS1R3 titrated, donor IL-6-NanoLuc-mGlu2 kept constant. In general terms: BRET reads energy transfer from a luciferase to a nearby fluorophore.
Assay [3] concerns the target T1, recombinant human TAS1R3 with N-terminal IL-6-HaloTag or IL-6-NanoLuc (human) (UniProt Q7RTX0).
T1 sequence: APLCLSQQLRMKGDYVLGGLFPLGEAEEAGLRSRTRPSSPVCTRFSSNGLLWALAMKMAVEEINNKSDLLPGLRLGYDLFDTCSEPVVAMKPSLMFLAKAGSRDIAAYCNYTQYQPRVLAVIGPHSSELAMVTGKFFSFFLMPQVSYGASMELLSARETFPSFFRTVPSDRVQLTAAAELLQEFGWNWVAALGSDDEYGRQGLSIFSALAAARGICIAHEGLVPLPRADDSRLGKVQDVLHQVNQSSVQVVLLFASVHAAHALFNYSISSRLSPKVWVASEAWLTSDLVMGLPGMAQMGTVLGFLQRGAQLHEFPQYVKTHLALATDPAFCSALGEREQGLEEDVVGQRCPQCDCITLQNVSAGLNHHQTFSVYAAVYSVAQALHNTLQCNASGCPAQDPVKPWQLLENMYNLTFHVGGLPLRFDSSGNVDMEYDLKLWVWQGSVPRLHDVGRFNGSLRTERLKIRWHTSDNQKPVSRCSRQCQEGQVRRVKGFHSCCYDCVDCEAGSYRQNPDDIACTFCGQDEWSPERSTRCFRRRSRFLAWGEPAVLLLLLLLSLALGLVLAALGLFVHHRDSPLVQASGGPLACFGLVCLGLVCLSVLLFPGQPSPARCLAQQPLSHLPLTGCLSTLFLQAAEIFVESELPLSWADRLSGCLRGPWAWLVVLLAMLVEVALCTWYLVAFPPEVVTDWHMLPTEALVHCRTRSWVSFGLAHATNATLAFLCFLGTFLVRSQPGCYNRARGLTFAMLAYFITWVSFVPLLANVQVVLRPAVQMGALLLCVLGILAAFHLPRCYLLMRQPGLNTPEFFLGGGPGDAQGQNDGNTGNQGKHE
Nature of the assay: FRET or BRET; NanoBRET in living HEK-293 cells, transiently transfected with 50 ng/well of each plasmid; IL-6-HaloTag fusion with NanoBRET 618 ligand as acceptor, IL-6-NanoLuc fusion as donor; normalised to the p53/MDM2 positive control; 50 uM MSG did not alter the signals.

Assay [4] addresses recombinant human mGlu2 with N-terminal IL-6-HaloTag or IL-6-NanoLuc (human) (UniProt Q14416). Described as above.

No constants are given. Whether binding was seen depends on the method and setting. Binding seen in cells or lysates may run through a third protein. Some entries that bind do so weakly or less than the wild type. For some of these results: Sequences can lack the tags named with a protein.

B1: taste receptor type 1 member 3 (TAS1R3), endogenous in human blood leukocytes (receptor, UniProt Q7RTX0 21-852)
chain: T1 sequence
B1: the binding result in assay [1] was “binds”.

B2: recombinant human TAS1R3 with N-terminal IL-6-HaloTag or IL-6-NanoLuc (receptor, UniProt Q7RTX0 21-852)
chain: T1 sequence
For the molecule B2, the binding result in assay [2], in assay [3] and in assay [4] was “binds” each time.
